Literature values, collected in patent US20100160208A1, “Pharmaceutical composition” (Antisense Pharma GmbH, priority 2003, published 2010).
“And” between values parts separate entries of the source, which are not always exact repeats. Identical values can stand only once. For at least one compound, name, drawing or mass did not settle the structure.

System: anaplastic astrocytoma, WHO grade III
Details: temozolomide alone, published data (Theodosopoulos et al. 2001); cited from earlier work

Cn1nnc2c(C(N)=O)ncn2c1=O [temozolomide, 3,4-dihydro-3-methyl-4-oxoimidazo->5,1d′1,2,3,4-tetrazin-8-carboximide]
median overall survival time: 42 weeks and 42.0 weeks
